PubChem BioAssay AID686943 – Drosophila RNAi Screening Center | 2013

Screen: 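Search across the genome for regulators of signalling from receptor tyrosine kinase to ERK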 (primary screen)
Cells: Drosophila S2R+ haemocyte-like cells expressing YFP-tagged ERK (Rolled)
Reagents: long dsRNA against Drosophila genes
Conditions: insulin stimulation versus unstimulated cells; dose and duration not given
Measured: 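Per-plate z-scores of phospho-ERK immunostaining normalised to YFP-tagged ERK, measured with and without insulin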
Reading the numbers: replicate 1, z-score of dpERK with insulin and replicate 2, z-score of dpERK with insulin: higher = more active ERK per ERK-YFP after insulin
In all, the deposit lists about 23,000 reagents; this is an unselected part of those with a known target gene and a result. 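Extra replicates exist only for a retested subset of genes; insulin dose and duration not given; both raised and lowered dpERK matter.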 A plus sign joins genes that one reagent is predicted to hit. Not all columns of the deposit are shown. Reagent sequences are not shown. Not stated in the record: the amount of reagent, the time to read-out.

no.	Gene	replicate 1, z-score of dpERK with insulin	replicate 2, z-score of dpERK with insulin
1	CG17717 (GeneID 31592)	-0.04	1.15
2	eIF4E1 (GeneID 45525)	-1.23	-0.71
3	Tengl1 (GeneID 318883)	-0.3	-0.51
4	klu (GeneID 39228)	-0.25	0.19
5	CG15468 (GeneID 31426)	0.59	0.38
6	CG6769 (GeneID 32770)	0.94	-0.32
7	ATPsynbetaL (GeneID 39761)	-1.07	0.02
8	CG10332 (retired record) + IM18	0.56	0.03
9	CG14342 (GeneID 33310)	-4.93	-4.18
10	CG9166 (GeneID 38161)	-1.45	-1.06
11	CG17385 (GeneID 36603)	1.57	0.31
12	ndl (GeneID 38738)	-0.28	0.09
13	CG14074 (GeneID 40051)	-1.3	-0.97
14	trr (GeneID 31149)	0.18	-3.18
15	CG12661 (GeneID 31822)	-0.01	-0.15
16	CG34426 (GeneID 5740622)	1.22	0.92
17	CG4328 (GeneID 39405)	-4.23	-2.9
18	CG14414 (GeneID 32394)	0.99	0.51
19	Acbp1 (GeneID 34111)	0.8	0.03
20	Obp19b (GeneID 33038)	-0.95	-0.28
21	bam (GeneID 43038)	0.62	-0.04
22	CG32568 (GeneID 32659)	0.45	0.4
23	bigmax (GeneID 43293)	1.76	-0.41
